From PMC4699217
These are yes or no findings as the source states them, for the method shown. Binding seen in cells or lysates may run through a third protein. Binding can be weak; no strength is given.

By UniProt entry, the sequences of proteins in these tests, tags left out. Where a name states a change or a piece, a line headed by the entry shows the natural chain unless it says otherwise.
UniProt Q7Z6G8: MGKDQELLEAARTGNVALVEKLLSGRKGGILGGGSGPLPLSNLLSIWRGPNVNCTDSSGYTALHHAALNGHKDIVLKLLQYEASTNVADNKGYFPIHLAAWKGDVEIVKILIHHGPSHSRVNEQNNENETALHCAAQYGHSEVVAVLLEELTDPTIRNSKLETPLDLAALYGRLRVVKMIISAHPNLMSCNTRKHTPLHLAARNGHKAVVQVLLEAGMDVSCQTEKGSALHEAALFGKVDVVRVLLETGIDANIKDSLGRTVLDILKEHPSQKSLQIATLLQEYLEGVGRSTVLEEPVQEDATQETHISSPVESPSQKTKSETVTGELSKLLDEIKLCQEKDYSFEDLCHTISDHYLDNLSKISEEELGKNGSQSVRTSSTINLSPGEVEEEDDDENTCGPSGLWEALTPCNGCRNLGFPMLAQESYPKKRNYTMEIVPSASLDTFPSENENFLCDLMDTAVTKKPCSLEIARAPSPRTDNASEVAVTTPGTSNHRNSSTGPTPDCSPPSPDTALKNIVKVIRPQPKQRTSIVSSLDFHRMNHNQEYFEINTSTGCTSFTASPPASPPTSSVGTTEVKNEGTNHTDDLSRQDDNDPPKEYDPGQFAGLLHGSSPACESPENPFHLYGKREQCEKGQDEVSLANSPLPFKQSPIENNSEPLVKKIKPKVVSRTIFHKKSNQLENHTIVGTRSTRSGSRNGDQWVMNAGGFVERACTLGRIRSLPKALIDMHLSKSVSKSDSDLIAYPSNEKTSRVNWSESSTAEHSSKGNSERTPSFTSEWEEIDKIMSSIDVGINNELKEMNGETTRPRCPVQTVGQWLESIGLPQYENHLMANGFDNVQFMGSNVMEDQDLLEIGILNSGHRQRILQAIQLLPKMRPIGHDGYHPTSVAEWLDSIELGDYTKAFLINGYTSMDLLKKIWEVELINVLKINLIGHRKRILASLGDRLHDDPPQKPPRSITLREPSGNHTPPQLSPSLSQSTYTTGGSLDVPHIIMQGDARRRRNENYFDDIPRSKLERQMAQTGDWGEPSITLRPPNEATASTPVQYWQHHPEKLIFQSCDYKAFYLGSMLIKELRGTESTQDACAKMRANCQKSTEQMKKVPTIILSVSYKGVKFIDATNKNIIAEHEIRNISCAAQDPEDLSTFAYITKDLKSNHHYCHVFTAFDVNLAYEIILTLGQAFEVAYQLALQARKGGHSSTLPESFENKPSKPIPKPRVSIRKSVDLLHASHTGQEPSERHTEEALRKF
UniProt O00522: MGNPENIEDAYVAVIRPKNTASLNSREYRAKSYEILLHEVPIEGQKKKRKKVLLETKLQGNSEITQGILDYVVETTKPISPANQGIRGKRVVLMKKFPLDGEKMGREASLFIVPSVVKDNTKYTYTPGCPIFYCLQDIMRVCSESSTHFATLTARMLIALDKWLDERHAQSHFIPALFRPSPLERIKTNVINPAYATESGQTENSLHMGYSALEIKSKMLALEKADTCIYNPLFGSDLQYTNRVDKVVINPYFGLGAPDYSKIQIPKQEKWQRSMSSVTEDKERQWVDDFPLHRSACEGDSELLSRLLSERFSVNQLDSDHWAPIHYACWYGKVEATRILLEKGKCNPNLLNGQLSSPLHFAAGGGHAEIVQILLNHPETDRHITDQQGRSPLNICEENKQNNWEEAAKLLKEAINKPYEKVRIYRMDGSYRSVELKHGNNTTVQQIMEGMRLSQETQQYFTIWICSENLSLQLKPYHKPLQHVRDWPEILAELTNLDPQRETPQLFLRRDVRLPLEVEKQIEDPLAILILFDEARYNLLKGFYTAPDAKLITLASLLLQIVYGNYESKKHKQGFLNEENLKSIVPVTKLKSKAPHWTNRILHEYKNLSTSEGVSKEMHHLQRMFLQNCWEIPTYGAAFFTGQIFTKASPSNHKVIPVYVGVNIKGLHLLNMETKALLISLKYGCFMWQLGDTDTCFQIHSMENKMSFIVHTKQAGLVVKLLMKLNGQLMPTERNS

Target: Protein A-tagged ANKS1B (human) (UniProt Q7Z6G8)
Assay: LUMIER (co-precipitation with luciferase read-out); HEK293 cells transiently transfected; lysed two days after transfection; Protein A-tagged protein purified with immunoglobulin-coated magnetic beads; luciferase-tagged protein detected by luminescence; LUMIER intensity ratio of 3 or above counts as positive

## KRIT1 fused to Renilla luciferase (from UniProt O00522 1-736)
  binding: binds
